Test system: Pfa1 cells
Assay: Cellular toxicity, Pfa1 cells without TAM (Example B.5)
Format: cell-based, mouse
Conditions: TC50 divided by the corresponding IC50 from example B.4 (Pfa1/TAM)
From the text: An estimate of the toxicity for compounds disclosed herein was obtained by using the same assay as described in Example B.4, but without the addition of TAM. […] Such TC50 values obtained for certain compounds disclosed herein, together with an approximate therapeutic window (estimated by dividing each TC50 by the corresponding IC50 determined from example B.4) are shown in Table 3 and Table 4.

SMILES	Therapeutic Window (approx.. fold)
Clc1ccccc1CNC1=Nc2ccccc2NC12CCCCC2 [C-1]	>100 fold
Clc1cccc(CNC2=Nc3ccccc3NC23CCCCC3)c1 [C-2]	>100 fold
Clc1ccc(CNC2=Nc3ccccc3NC23CCCCC3)cc1 [C-3]	>200 fold
Fc1cccc(CNC2=Nc3ccccc3NC23CCCCC3)c1 [C-5]	>50 fold
Cc1cccc(CNC2=Nc3ccccc3NC23CCCCC3)c1 [C-11]	>20 fold
FC(F)(F)c1cccc(CNC2=Nc3ccccc3NC23CCCCC3)c1 [C-23]	>100 fold
COc1cccc(CNC2=Nc3ccccc3NC23CCCCC3)c1 [C-47]	>50 fold
Fc1cc(Cl)ccc1CNC1=Nc2ccccc2NC12CCCCC2 [C-61]	>100 fold
Clc1cccc(CCNC2=Nc3ccccc3NC23CCCCC3)c1 [C-79]	>10 fold
CC1CCC2(CC1)Nc1ccccc1N=C2NCc1ccccc1Cl (stereo not drawn) [C-91]	>100 fold
CC(=O)NC1CCC2(CC1)Nc1ccccc1N=C2NCc1cccc(Cl)c1 (stereo not drawn) [C-111]	>10 fold
Fc1cc2c(cc1F)NC1(CCCCC1)C(NCc1cccc(Cl)c1)=N2 [C-137]	>100 fold
Clc1ccccc1CNC1=Nc2ccccc2NC12CCCCCC2 [C-205]	>200 fold
Clc1cccc(CNC2=Nc3ccccc3NC23CCCCCCC3)c1 [C-206]	>10 fold
c1ccc(CNC2=Nc3ccccc3NC23CCCCCC3)cc1 [C-214]	>20 fold
c1ccc(CNC2=Nc3ccccc3NC23CCCCC3)cc1 [C-215]	>50 fold
Clc1cccc(CNC2=Nc3ccccc3NC23CCCCCC3)c1 [C-216]	>100 fold
Clc1cc2c(cc1Cl)NC1(CCCCC1)C(NCc1ccccc1)=N2 [C-217]	>500 fold
Cc1cc2c(cc1C)NC1(CCCCC1)C(NCc1ccccc1)=N2 [C-218]	>200 fold

SMILES	Therapeutic Window (approx.. fold)
c1ccc(CNC2=Nc3ccccc3NC23CCCC3)cc1 [C-219]	>20 fold
Clc1ccc(CNC2=Nc3ccccc3NC23CCCCCC3)cc1 [C-220]	>50 fold
c1ccc(CCCNC2=Nc3ccccc3NC23CCCCC3)cc1 [C-221]	>10 fold
Fc1cccc(F)c1CNC1=Nc2ccccc2NC12CCCCC2 [C-222]	>200 fold
c1ccc(CNC2=Nc3cc4c(cc3NC23CCCCC3)OCCO4)cc1 [C-223]	>200 fold
COc1cccc(CNC2=Nc3ccccc3NC23CCCCCC3)c1 [C-224]	>50 fold
Cc1cc(C)cc(CNC2=Nc3ccccc3NC23CCCCC3)c1 [C-225]	>20 fold
c1ccc(CCNC2=Nc3ccccc3NC23CCCCC3)cc1 [C-226]	>10 fold
Clc1cccc(CNC2=Nc3cc4c(cc3NC23CCCCC3)OCCO4)c1 [C-227]	>1000 fold
Clc1ccc(CNC2=Nc3ccccc3NC23CCCCC3)cc1Cl [C-228]	>500 fold
c1ccc(C(CNC2=Nc3ccccc3NC23CCCCC3)c2ccccc2)cc1 [C-229]	>10 fold
Clc1ccc(CNC2=Nc3ccccc3NC23CCCCC3)c(Cl)c1 [C-230]	>200 fold
Fc1ccc(CNC2=Nc3ccccc3NC23CCCCC3)c(F)c1 [C-231]	>50 fold
c1ccc(CCCCNC2=Nc3ccccc3NC23CCCCC3)cc1 [C-232]	>20 fold
CC(CCc1ccccc1)NC1=Nc2ccccc2NC12CCCCC2 (stereo not drawn) [C-233]	>20 fold
Clc1cccc(CNC2=Nc3cc(Cl)c(Cl)cc3NC23CCCCCC3)c1 [C-234]	>100 fold
Clc1cc2c(cc1Cl)NC1(CCCCCC1)C(NCc1ccccc1)=N2 [C-235]	>50 fold
c1ccc(CNC2=Nc3ccccc3NC23CCCCCCC3)cc1 [C-236]	>50 fold
Clc1cc2c(cc1Cl)NC1(CCCCCCC1)C(NCc1ccccc1)=N2 [C-237]	>50 fold

SMILES	Therapeutic Window (approx.. fold)
Fc1cc2c(cc1F)NC1(CCCCC1)C(NCc1ccccc1)=N2 [C-238]	>100 fold
Cc1cc2c(cc1C)NC1(CCCCCC1)C(NCc1ccccc1)=N2 [C-239]	>50 fold
Fc1cccc(F)c1CNC1=Nc2cc(Cl)c(Cl)cc2NC12CCCCC2 [C-240]	>20 fold
Cc1cc2c(cc1C)NC1(CCCCCCC1)C(NCc1ccccc1)=N2 [C-241]	>20 fold
Fc1ccc(CNC2=Nc3ccccc3NC23CCCCCC3)c(F)c1 [C-242]	>10 fold
Clc1cc2c(cc1Cl)NC1(CCCCCC1)C(NCc1ccccc1Cl)=N2 [C-243]	>20 fold
CC(NC1=Nc2ccccc2NC12CCCCC2)c1ccccc1 (stereo not drawn) [C-244]	>10 fold
CC(=O)NC1CCC2(CC1)Nc1ccccc1N=C2NCc1ccccc1 (stereo not drawn) [C-249]	>20 fold
CC1CCC2(CC1)Nc1ccccc1N=C2NCc1ccccc1 (stereo not drawn) [C-252]	>10 fold
CC1(C)CCC2(CC1)Nc1ccccc1N=C2NCc1ccccc1 [C-253]	>10 fold
FC(F)(F)c1cccc2c1N=C(NCc1ccccc1)C1(CCCCC1)N2 [C-254]	>20 fold
Cc1cc2c(cc1C)NC1(CCCCCC1)C(NCc1cccc(Cl)c1)=N2 [C-255]	>50 fold
FC1(F)Oc2cc3c(cc2O1)NC1(CCCCC1)C(NCc1ccccc1)=N3 [C-256]	>200 fold
NC1CCC2(CC1)Nc1ccccc1N=C2NCc1ccccc1 (stereo not drawn) [C-257]	>20 fold
Clc1ccc2c(c1)N=C(NCc1ccccc1)C1(CCCCC1)N2 [C-258]	>50 fold
FC(F)(F)c1ccc2c(c1)N=C(NCc1ccccc1)C1(CCCCC1)N2 [C-259]	>20 fold
FC(F)(F)c1cccc(CNC2=Nc3cc(Cl)c(Cl)cc3NC23CCCCCC3)c1 [C-260]	>50 fold
FC(F)(F)c1cccc(CNC2=Nc3ccccc3NC23CCCCCC3)c1 [C-261]	>20 fold
Cc1cc(C)cc(CNC2=Nc3cc(Cl)c(Cl)cc3NC23CCCCCC3)c1 [C-262]	>20 fold
